Experimental data from PMC12431657, “Discovery and mechanistic insights of dibenzoylmethane as a broad spectrum inhibitor of coronavirus” (PLOS Pathogens, 2025).
Read-outs that look alike come from different tables or passages of the source. The whole screen tested about 3,300 compounds, of which about 60 (2%) showed an effect of 50% or more. Some of the results follow.

Test system: HCoV-OC43
Design: species or system RD; HTS, protection from HCoV-OC43 induced cell death, luminescent cell viability (CellCounting-Lite 2.0), inhibition rate
Details: 24 h post infection, 1 h compound pre-incubation, 10 µM, inhibitor

| SMILES | OC43 Inhibition rate [%] | OC43 Inhibition rate (OC43 Inhibition rate, 24 h) [%] |
| --- | --- | --- |
| Nc1ncc[nH]1 [2-Aminoimidazole] | -1.5 | – |
| C[C@@H]1O[C@@H](O)[C@H](O)[C@H](O)[C@H]1O [α-L-Rhamnose monohydrate] | 2.9 | – |
| O=C1N[C@@H](Cc2ccccc2)C(=O)N2CCC[C@@H]12 [Cyclo(L-Phe-L-Pro)] | 1.4 | – |
| COc1cc([C@H]2OC[C@H]3[C@@H]2CO[C@@H]3c2ccc(O[C@@H]3O[C@H](CO)[C@@H](O)[C@H](O)[C@H]3O)c(OC)c2)ccc1O[C@@H]1O[C@H](CO)[C@@H](O)[C@H](O)[C@H]1O [Pinoresinol Diglucoside] | -0.6 | – |
| CC(C)(COP(=O)(O)OP(=O)(O)OC[C@H]1O[C@@H](n2cnc3c(N)ncnc32)[C@H](O)[C@@H]1OP(=O)(O)O)[C@@H](O)C(=O)NCCC(=O)NCCS [Coenzyme A] | 0 | – |
| COc1c2c(cc3c1-c1c(cc4c(c1OC)OCO4)C[C@H](C)[C@H](C)C3)OCO2 [Schisandrin C] | 4.9 | – |
| O=C(O)/C=C/c1ccc(O)c(O)c1 [Caffeic acid] | 1.3 | – |
| CC(C)CC(=O)NCC(=O)O [N-Isovaleroylglycine] | -0.4 | – |
| C=C1C[C@@]2(O)O[C@@]3(C[C@H]2C(C)C)[C@@H](C)CC[C@@H]13 [Curcumol] | -0.3 | – |
| N[C@@H]1CONC1=O [D-Cycloserine] | -1.2 | – |
| CCCOC(=O)c1cc(O)c(O)c(O)c1 [Propyl gallate] | -0.1 | – |
| COc1c(/C=C/C(=O)c2ccc(O)c(O)c2)ccc(O)c1O [Tetrahydroxymethoxychalcone] | 1.6 | – |
| COc1cc(-c2oc3cc(O)cc(O)c3c(=O)c2O[C@@H]2O[C@H](CO[C@@H]3O[C@@H](C)[C@H](O)[C@@H](O)[C@H]3O)[C@@H](O)[C@H](O)[C@H]2O)ccc1O [Narcissin] | -1 | – |
| CCCCCCCCCCCCCCCC(=O)NCc1ccccc1 [N-Benzylpalmitamide] | -0.2 | – |
| C[C@@H]1O[C@@H](Oc2cc(O)c3c(c2)O[C@H](c2ccc(O)c(O)c2)[C@@H](O)C3=O)[C@H](O)[C@H](O)[C@H]1O [Taxifolin 7-O-rhamnoside] | 4.1 | – |
| C[C@H]1CC[C@@H]2N(C1)C[C@H]1[C@@H]3C[C@H]4[C@@H](CC(=O)[C@H]5C[C@@H](O[C@@H]6O[C@H](CO)[C@@H](O)[C@H](O)[C@H]6O)CC[C@@]54C)[C@@H]3CC[C@@H]1[C@]2(C)O [Edpetiline] | -0.6 | – |
| CC(=O)N[C@@H](CCCN)C(=O)O [N-Acetylornithine] | -0.4 | – |
| O=C(O)c1ccccn1 [PCL 016] | -0.3 | – |

An excerpt of these results, tab-delimited:
SMILES	OC43 Inhibition rate [%]	OC43 Inhibition rate (OC43 Inhibition rate, 24 h) [%]
CCCOC(=O)c1cc(O)c(O)c(O)c1 [Propyl gallate]	-0.1	–
CC(=O)N[C@@H](CCCN)C(=O)O [N-Acetylornithine]	-0.4	–

Next part:

| SMILES | OC43 Inhibition rate [%] | OC43 Inhibition rate (OC43 Inhibition rate, 24 h) [%] |
| --- | --- | --- |
| C[C@H](O)[C@H](O)[C@@H](O)[C@@H](O)C=O [Rhamnose (monohydrate)] | -1.4 | – |
| C[C@@H]1O[C@@H](c2c(O)c([C@@H]3O[C@H](CO)[C@@H](O)[C@H](O)[C@H]3O)c(O)c3c(=O)cc(-c4ccc(O)cc4)oc23)[C@H](O)[C@H](O)[C@H]1O [Violanthin] | -0.4 | – |
| C[C@H]1O[C@@H](O[C@H]2CC[C@@]3(C)[C@@H](CC[C@]4(C)[C@@H]3C=CC3=C5CC(C)(C)CC[C@]5(CO)[C@H](O)C[C@]34C)[C@]2(C)CO)[C@H](O)[C@@H](O)[C@H]1O [Prosaikogenin D] | 5 | – |
| CC(=O)O[C@@H]1[C@@H](OC(C)=O)[C@@H](O)[C@H](Oc2c(-c3ccc(O)cc3)oc3cc(O)cc(O)c3c2=O)O[C@H]1C [SL 0101-1] | 0.7 | – |
| C=C1C(=O)O[C@H]2C[C@H](C)C(/C=C/C(C)=O)=CC[C@H]12 [Xanthatin] | -0.6 | – |
| COc1cc2oc(-c3ccc(O)c(O)c3)c(OC)c(=O)c2c(O)c1OC [Chrysosplenol D] | 2.8 | – |
| CC[C@H](CC[C@@H](C)[C@H]1CC[C@H]2[C@@H]3CC=C4C[C@@H](O)CC[C@]4(C)[C@H]3CC[C@]12C)C(C)C [Beta-Sitosterol (purity>80%)] | – | -0.3 |
| O=c1oc2cc(O)ccc2c2ccc(O)cc12 [Urolithin A] | -4.5 | – |
| O=C(O)c1ccc(O)c(O)c1O [2,3,4-Trihydroxybenzoic acid] | -1.2 | – |
| C[C@@H]1CC[C@@]2(NC1)O[C@H]1C[C@H]3[C@@H]4CC=C5C[C@@H](O[C@@H]6O[C@H](CO)[C@H](O)[C@H](O[C@@H]7O[C@H](CO)[C@@H](O)[C@H](O)[C@H]7O)[C@H]6O[C@@H]6O[C@@H](C)[C@H](O)[C@@H](O)[C@H]6O)CC[C@]5(C)[C@H]4CC[C@]3(C)[C@H]1[C@@H]2C [Solasonine] | 13.2 | – |
| CC(C)=CC[C@@H](O)C1=CC(=O)c2c(O)ccc(O)c2C1=O [Shikonin] | 0.8 | – |
| COc1cc2c(cc1OC)-c1cc3ccc(OC)c(O)c3c[n+]1CC2 [Palmaturbine (hydroxide)] | – | 2.9 |
| O=C(/C=C/c1ccc(O)cc1)c1ccccc1 [4-Hydroxychalcone] | 0 | – |
| O=C(/C=C/c1ccc(O)c(O)c1)O[C@@H]1C[C@@](OC(=O)/C=C/c2ccc(O)c(O)c2)(C(=O)O)C[C@@H](O)[C@@H]1O [Cynarin] | 3 | – |
| CC1=C(/C=C/C(C)=C/C=C/C(C)=C/C(=O)O)C(C)(C)CCC1 [Retinoic acid] | 0.1 | – |
| CC(C)=CCC[C@](C)(O[C@@H]1O[C@H](CO)[C@@H](O)[C@H](O)[C@H]1O)[C@H]1CC[C@]2(C)[C@@H]1[C@H](O)C[C@@H]1[C@@]3(C)CC[C@H](O)C(C)(C)[C@@H]3[C@@H](O[C@@H]3O[C@H](CO)[C@@H](O)[C@H](O)[C@H]3O[C@@H]3O[C@@H](C)[C@H](O)[C@@H](O)[C@H]3O)C[C@]12C [Ginsenoside Re] | -0.2 | – |
| CC(C)=CCc1c(O)cc(O)c2c(=O)c(O[C@@H]3O[C@@H](C)[C@H](O)[C@@H](O)[C@H]3O)c(-c3ccc(O)cc3)oc12 [IKarisoside A] | 14.9 | – |
| COc1ccc2ccc(=O)oc2c1CC=C(C)C [Osthole] | 30.2 | – |
